This passage reports step yield results from patent publication US4567162A (Farmitalia Carlo Erba, priority 1983, dated 1986).

HELM strings list residues between dots; [ac] is acetyl, [am] amide, other brackets name non-standard units. * marks the point of attachment. Boc = CC(C)(C)OC(=O)*

One data set can be described thus: general procedure: solution-phase peptide synthesis; ethyl chloroformate / NMM (mixed anhydride). Particulars: coupling step, HCl.
Substance Boc-LGWM-OMe had a step yield of 60% yield.

The substance Boc-VPPLGWM-OMe gave a step yield of 80% yield.

The data set is the same for the next values; noted with them: late stage modification step, HCl.
For the substance Boc-VPPLGWM-OH, the step yield was determined as 81% yield.

With PEPTIDE1{V.P.P.L.G.W.M.[OMe]}$$$$V2.0, the step yield is reported as 75% yield.

Substance PEPTIDE1{V.P.P.L.G.W.M}$$$$V2.0 displayed a step yield of 72% yield.

As for HCl.H-Leu-Gly-Trp-Met-OMe, the step yield was 77% yield.

With H-Val-Pro-Pro-Leu-Gly-Trp-Met-NH2.HCl, the step yield is given as 68% yield.
